From article PMC6830327
Results are given in words; binding and its absence hold for the method and conditions named. In cells and extracts the contact can be indirect. Some entries that bind do so weakly or less than the wild type.

Protein sequences, listed by entry. Tags and fused reporters are not part of them. Lines headed by an entry give the natural chain unless they say otherwise; changes in a name come on top. Chains listed by the source or under a name are the forms on record and can include a tag or linker.
HA-Smurf1 (Q9HCE7-2, form named): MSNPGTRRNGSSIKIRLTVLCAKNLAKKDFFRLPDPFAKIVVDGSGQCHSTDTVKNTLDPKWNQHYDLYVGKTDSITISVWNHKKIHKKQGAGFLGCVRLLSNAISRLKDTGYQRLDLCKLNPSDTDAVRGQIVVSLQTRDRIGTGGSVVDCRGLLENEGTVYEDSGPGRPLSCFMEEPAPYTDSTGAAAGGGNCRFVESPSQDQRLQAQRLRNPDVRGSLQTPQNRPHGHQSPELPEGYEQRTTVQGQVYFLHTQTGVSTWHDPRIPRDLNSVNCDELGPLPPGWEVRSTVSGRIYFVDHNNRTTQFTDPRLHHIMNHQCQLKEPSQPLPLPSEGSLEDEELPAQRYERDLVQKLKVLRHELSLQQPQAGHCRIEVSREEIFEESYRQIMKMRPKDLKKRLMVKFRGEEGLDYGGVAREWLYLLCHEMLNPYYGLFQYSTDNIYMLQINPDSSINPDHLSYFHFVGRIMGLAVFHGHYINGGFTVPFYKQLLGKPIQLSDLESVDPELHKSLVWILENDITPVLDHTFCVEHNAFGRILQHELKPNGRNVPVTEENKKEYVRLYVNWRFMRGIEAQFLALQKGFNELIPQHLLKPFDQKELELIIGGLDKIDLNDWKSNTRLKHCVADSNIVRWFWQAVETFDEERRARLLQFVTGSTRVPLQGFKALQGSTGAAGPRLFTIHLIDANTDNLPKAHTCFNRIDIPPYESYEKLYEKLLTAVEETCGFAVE
UniProt Q9BSQ5: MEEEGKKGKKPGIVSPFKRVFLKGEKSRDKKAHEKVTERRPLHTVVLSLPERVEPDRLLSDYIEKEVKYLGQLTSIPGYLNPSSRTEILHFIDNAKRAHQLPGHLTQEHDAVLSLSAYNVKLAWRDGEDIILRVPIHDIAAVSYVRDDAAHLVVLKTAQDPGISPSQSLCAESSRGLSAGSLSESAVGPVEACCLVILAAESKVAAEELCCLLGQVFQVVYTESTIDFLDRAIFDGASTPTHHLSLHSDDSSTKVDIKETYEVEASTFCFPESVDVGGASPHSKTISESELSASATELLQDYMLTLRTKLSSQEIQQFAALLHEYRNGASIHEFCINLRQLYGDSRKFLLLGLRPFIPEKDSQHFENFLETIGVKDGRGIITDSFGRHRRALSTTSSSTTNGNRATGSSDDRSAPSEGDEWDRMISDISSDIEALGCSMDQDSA
UniProt P61586: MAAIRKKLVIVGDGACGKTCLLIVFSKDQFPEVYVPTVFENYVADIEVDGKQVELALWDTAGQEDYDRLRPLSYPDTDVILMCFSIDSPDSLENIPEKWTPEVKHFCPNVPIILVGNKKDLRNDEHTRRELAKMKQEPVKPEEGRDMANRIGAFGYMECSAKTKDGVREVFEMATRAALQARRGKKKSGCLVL
UniProt Q14247: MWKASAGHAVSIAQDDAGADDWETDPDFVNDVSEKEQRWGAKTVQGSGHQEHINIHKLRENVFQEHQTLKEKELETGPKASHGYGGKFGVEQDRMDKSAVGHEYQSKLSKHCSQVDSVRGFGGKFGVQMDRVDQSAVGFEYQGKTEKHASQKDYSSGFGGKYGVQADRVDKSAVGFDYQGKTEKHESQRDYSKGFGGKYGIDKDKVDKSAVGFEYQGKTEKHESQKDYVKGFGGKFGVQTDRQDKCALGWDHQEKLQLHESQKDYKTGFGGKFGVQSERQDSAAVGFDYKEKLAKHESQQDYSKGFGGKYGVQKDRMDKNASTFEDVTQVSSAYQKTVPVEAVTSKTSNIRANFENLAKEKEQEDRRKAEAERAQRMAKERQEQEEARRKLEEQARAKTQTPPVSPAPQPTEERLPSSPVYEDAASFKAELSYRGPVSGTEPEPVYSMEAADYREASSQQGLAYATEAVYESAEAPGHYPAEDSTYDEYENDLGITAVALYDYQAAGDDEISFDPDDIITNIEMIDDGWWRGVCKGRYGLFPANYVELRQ

Tests used:
Flag-Smurf1 = Flag-Smurf1 (UniProt Q9HCE7); assay: co-IP; HEK293T (for Figure 4E also HEK293T shCCM2) transfected with Flag- and HA-tagged plasmids, treated with DMSO or CK-666 (100 uM); lysis in 25 mM Tris-HCl pH 7.4, 150 mM NaCl, 1% NP-40, 1 mM EDTA, 5% glycerol; anti-DDDDK-tag antibody overnight at 4 °C, protein A + G agarose; detection with anti-HA
Flag-CCM2 = Flag-CCM2 (UniProt Q9BSQ5); assay: as above
Flag-RhoA = Flag-RhoA (UniProt P61586); assay: as above
cortactin = cortactin (UniProt Q14247); assay: proximity ligation; in situ PLA (Duolink) in fixed, permeabilised cells treated with DMSO or CK-666; primary antibodies against the two proteins
HA-RhoA Q63L = HA-RhoA Q63L (UniProt P61586); assay: as above
GST-RhoA Q63L = GST-RhoA Q63L (UniProt P61586); assay: pull-down; active RhoGAP pulldown: GST-RhoA Q63L on glutathione Sepharose (50 ug/mL) incubated with total cell lysate for 1 h at 4 °C; lysis buffer 150 mM NaCl, 20 mM HEPES pH 7.6, 10 mM MgCl2, 1% Triton X-100; cells treated with DMSO or CK-666; p190RhoGAP detected by western blot; only the target purified
[1] = molecular target: cortactin (Co-IP of Figure 2F) (UniProt Q14247); assay: co-IP; Co-IP 'as indicated' in Figure 2F, cells treated with DMSO or CK-666; which protein was precipitated is not told

HA-RhoA (from UniProt P61586 1-193)
binding (Flag-Smurf1): binds | binding (Flag-CCM2): binds

HA-Smurf1 (from UniProt Q9HCE7-2 1-731)
binding (Flag-RhoA): binds | binding (Flag-CCM2): binds

B1: p190RhoGAP (protein, UniProt Q9NRY4 1-1499)
chain: MMMARKQDVRIPTYNISVVGLSGTEKEKGQCGIGKSCLCNRFVRPSADEFHLDHTSVLSTSDFGGRVVNNDHFLYWGEVSRSLEDCVECKMHIVEQTEFIDDQTFQPHRSTALQPYIKRAAATKLASAEKLMYFCTDQLGLEQDFEQKQMPDGKLLVDGFLLGIDVSRGMNRNFDDQLKFVSNLYNQLAKTKKPIVVVLTKCDEGVERYIRDAHTFALSKKNLQVVETSARSNVNVDLAFSTLVQLIDKSRGKTKIIPYFEALKQQSQQIATAKDKYEWLVSRIVKNHNENWLSVSRKMQASPEYQDYVYLEGTQKAKKLFLQHIHRLKHEHIERRRKLYLAALPLAFEALIPNLDEIDHLSCIKAKKLLETKPEFLKWFVVLEETPWDATSHIDNMENERIPFDLMDTVPAEQLYEAHLEKLRNERKRVEMRRAFKENLETSPFITPGKPWEEARSFIMNEDFYQWLEESVYMDIYGKHQKQIIDKAKEEFQELLLEYSELFYELELDAKPSKEKMGVIQDVLGEEQRFKALQKLQAERDALILKHIHFVYHPTKETCPSCPACVDAKIEHLISSRFIRPSDRNQKNSLSDPNIDRINLVILGKDGLARELANEIRALCTNDDKYVIDGKMYELSLRPIEGNVRLPVNSFQTPTFQPHGCLCLYNSKESLSYVVESIEKSRESTLGRRDNHLVHLPLTLILVNKRGDTSGETLHSLIQQGQQIASKLQCVFLDPASAGIGYGRNINEKQISQVLKGLLDSKRNLNLVSSTASIKDLADVDLRIVMCLMCGDPFSADDILFPVLQSQTCKSSHCGSNNSVLLELPIGLHKKRIELSVLSYHSSFSIRKSRLVHGYIVFYSAKRKASLAMLRAFLCEVQDIIPIQLVALTDGAVDVLDNDLSREQLTEGEEIAQEIDGRFTSIPCSQPQHKLEIFHPFFKDVVEKKNIIEATHMYDNAAEACSTTEEVFNSPRAGSPLCNSNLQDSEEDIEPSYSLFREDTSLPSLSKDHSKLSMELEGNDGLSFIMSNFESKLNNKVPPPVKPKPPVHFEITKGDLSYLDQGHRDGQRKSVSSSPWLPQDGFDPSDYAEPMDAVVKPRNEEENIYSVPHDSTQGKIITIRNINKAQSNGSGNGSDSEMDTSSLERGRKVSIVSKPVLYRTRCTRLGRFASYRTSFSVGSDDELGPIRKKEEDQASQGYKGDNAVIPYETDEDPRRRNILRSLRRNTKKPKPKPRPSITKATWESNYFGVPLTTVVTPEKPIPIFIERCIEYIEATGLSTEGIYRVSGNKSEMESLQRQFDQDHNLDLAEKDFTVNTVAGAMKSFFSELPDPLVPYNMQIDLVEAHKINDREQKLHALKEVLKKFPKENHEVFKYVISHLNKVSHNNKVNLMTSENLSICFWPTLMRPDFSTMDALTATRTYQTIIELFIQQCPFFFYNRPITEPPGARPSSPSAVASTVPFLTSTPVTSQPSPPQSPPPTPQSPMQPLLPSQLQAEHTL
binding (cortactin): binds | binding (HA-RhoA Q63L): binds | binding (GST-RhoA Q63L): binds

B2: p190RhoGAP (Co-IP of Figure 2F) (protein, UniProt Q9NRY4 1-1499)
chain: B1 chain
binding [1]: binds
